Results taken from PMC6112376, “Comprehensive Analyses and Prioritization of Tox21 10K Chemicals Affecting Mitochondrial Function by in-Depth Mechanistic Studies” (Environmental Health Perspectives, 2018).
Read-outs that look alike come from different tables or passages of the source.

Legend:
HepG2 cells [1] = test: cells; details: Homo sapiens, HepG2, read-out: MMP assays IC50 (µM), HepG2
HepG2 cells [2] = details: read-out: MMP assays IC50 (µM), qHTS-HepG2; cited from earlier work

O=C(CCCN1CCC2(CC1)C(=O)NCN2c1ccccc1)c1ccc(F)cc1 [Spiperone]
IC50 (HepG2 cells [1]): 3.46 µM
IC50 (HepG2 cells [2]): 3.62 ± 0.24 µM
